For part of these data: A weaker result is weaker than the reference pair of the same experiment. For part of these data: The exact form of at least one protein or probe is not confirmed. For part of these data: At least one verdict was read from the data and is not stated in words by the source.
Legend:
[1] = tested on: RNA polymerase II (12-subunit) (Sus scrofa (thymus)); test: mass photometry; conditions: 50 mM KCl, 4 mM Mg2+, native protein
TFIIF (RAP74ΔC) = test: EMSA; conditions: 0-60 nM TFIIF, 1 mM Mg2+, reduced vs wild type; EMSA: 20 mM HEPES-NaOH pH 7.25, 150 mM NaCl, 1 mM MgCl2, 5% glycerol, 40 ug/ml BSA, 1 mM DTT, 5 nM RNA, 30 C (gel 4 C); recombinant protein; protein details: His10-Arg7-SUMO tag, 3C cleaved; label: 3' ATTO 488 (anisotropy, EMSA)

Sequence	binding result [1]	binding result (TFIIF (RAP74ΔC))	binding result ([1]; label: 3' ATTO 488 (anisotropy, EMSA))
GAGGCAGGAGAAUGGCGUGAACCCGGGAGGUGGACGAGAUCGCUCCAGCCUGGGUGACAGAGCGAGACUCUGUCUC [minimal Alu-RA]	binds		
GGCCGGGCGCGGUGGCUCACGCCUGUAAUCCCAGCACUUUGGGAGGCCGAGGCGGGCGGAUCACAAGGUCAGGAGAUCGAGACCAUCCUGGCUAACACAGUGAAACCCCGUCUCUACU [Alu-LA (scAlu)]		binds more weakly	binds

Reference: paper PMC11996674
